# No constants are given. Whether binding was seen depends on the method and setting. Binding calls can cover weak binding; strength is not graded here. Sequences can lack the tags named with a protein.
# Biological target: PomY-mCh (His6-tagged full-length PomY with mCherry tag) (Myxococcus xanthus)
# Assay: confocal fluorescence microscopy of purified proteins
binder,measurement,value
"A488-FtsZ (Cys-tagged FtsZ labelled with Alexa488) (protein, UniProt Q1D0T7 1-405, Alexa488 on the Cys-tag) MDQFDQNKQAAKIRVVGAGGAGCNAVNTMILSKLDRVDFIAANTDVQALAASKAPTRLQLGQTLTKGLGAGANPEMGREAALESRDQIAAVLEGADMVFVTAGMGGGTGTGAAPIIADIAKSLGCLTVGVVTKPFLFEGNKRRKQAEQGIVELKAAVDTLITIPNQRLLSLSNEPMPLLETFKRADEVLLNAVQGISDLIQYHGYINVDFADVKTIMSDKGIALMGTGNSTGDKRALIAMQQAIASPLLEDVTIDGATGLLINITGGRDMTLQEVNEALTLVHDAADSEAEIIFGSLIDENISDEVKITIIATGFVHRDAPKVRTVAPVVQVPLSRPAPSVLANAREEVASLVPTKGSGSRPLTVESAKSVSARTAVVKDAPLPLDEDQFDIPTFLRRQGQTELP",binding,binds

# Source: publication doi:10.1101/2022.09.12.507586
